{"source": "patent US20130034894A1", "about": "“NOVEL ALLENE OXIDE SYNTHASE DERIVED FROM LEMNA PAUCICOSTATA” (priority 2010, published 2013)", "molecules": {"B1": {"name": "SHLpAOS: allene oxide synthase obtained from the Lemna paucicostata SH strain, expressed in Escherichia coli (SEQ ID NO: 2, 480 aa) (protein, listed as Lemna paucicostata)", "chain": "MSVSQSDDKAALVPQKTIPGSYGIPFITPLKDRLDFFSNEYQFFQSRVESYGSTIVRLNAPPGPFMAKNPQVIAILDGKSFPVLFDTSKVEKKNIFTGTYMPSTALTGGYRVCAYLDPSEPNHTKIKQLLLNILFNRKDHVIPEFHRAYEKLFDDMDAEIAKSGKFVFNDHNDGAAFEFLGRLFFGVSPSETELGAGGVKDANLWLFSQLCPLMTLGFLPKLLEDLLLHTFPLPPFLFKGKYQAIYKYISSVATDALTMAENLGLSREEAAHNLLFAVCFNSLGGVKVLFPGILRYIAQAGKNLQASLVSEVRSAVSSTGGELTIEALEKMPLTKSVVYESLRLDPPVKYQYGVVKKDMVIESHDRSYEVKAGETLFGYQPFATRDKKIFGPDADNFVAERFIGEEGAKVLRFVVWSNGPETTDPTPVDKQCPGKNLVVLISRLLVAEFFLRYDFFDAEIGAVPLAVKTTITSLTKATTR"}, "B2": {"name": "AtAOS: A. thaliana-derived allene oxide synthase (AOS) protein used as the control, expressed in Escherichia coli (protein, UniProt Q96242 34-518, looked up)", "Allene oxide synthase, …": "SGSETPDLTVATRTGSKDLPIRNIPGNYGLPIVGPIKDRWDYFYDQGAEEFFKSRIRKYNSTVYRVNMPPGAFIAENPQVVALLDGKSFPVLFDVDKVEKKDLFTGTYMPSTELTGGYRILSYLDPSEPKHEKLKNLLFFLLKSSRNRIFPEFQATYSELFDSLEKELSLKGKADFGGSSDGTAFNFLARAFYGTNPADTKLKADAPGLITKWVLFNLHPLLSIGLPRVIEEPLIHTFSLPPALVKSDYQRLYEFFLESAGEILVEADKLGISREEATHNLLFATCFNTWGGMKILFPNMVKRIGRAGHQVHNRLAEEIRSVIKSNGGELTMGAIEKMELTKSVVYECLRFEPPVTAQYGRAKKDLVIESHDAAFKVKAGEMLYGYQPLATRDPKIFDRADEFVPERFVGEEGEKLLRHVLWSNGPETETPTVGNKQCAGKDFVVLVARLFVIEIFRRYDSFDIEVGTSPLGSSVNFSSLRKASF"}}, "assay": "Kinetic analysis of allene oxide synthase (decrease in absorbance at 234 nm, Hanes-Woolf plot)", "type": "biochemical", "conditions": "substrate 9-HPOT 5-53 μM, 40 mM phosphate buffer pH 7.5, 1% EtOH, 25° C.", "description": "SHLpAOS obtained from Lemna paucicostata SH strain was subjected to kinetic analysis. Using a reaction mixture comprising 40 mM phosphate buffer (pH 7.5) and 1% EtOH, the reaction was carried out at a temperature of 25° C. The substrate 9-HPOT was tested at the substrate concentration of 5-53 μM. The substrate 9-HOPT was added as an EtOH solution, and the final concentration of EtOH was adjusted to 1%. 100 μl of the reaction mixture was added into a cuvette, and a decrease in absorbance at 234 nm was scanned over time for 1 minute at an interval of 2 seconds using the SmartSpec Plus Spectrophotometer (Bio-Rad). From the A234 determined, the amount of the reaction product was calculated (e=25,000). Kinetic parameters were determined using the Hanes-Woolf plot ([S]/v versus [S] plot). […] It is believed that compared to AtAOS, SHLpAOS is a very useful AOS in the practical production of KODA.", "note": "The name of at least one read-out is uncertain."}
{"molecule": "B1", "values": [{"measurement": "Kcat/Km", "value": "99.0 ± 23.7 ×10^6M^−1sec^−1"}]}
{"molecule": "B2", "values": [{"measurement": "Kcat/Km", "value": "7.0 ± 3.8 ×10^6M^−1sec^−1"}]}
